The results in this text go back to article PMC4498735, “Fibulin-1C, C1 Esterase Inhibitor and Glucose Regulated Protein 75 Interact with the CREC Proteins, Calumenin and Reticulocalbin” (PLoS ONE, 2015).

In assay [1] the target is T1, GST-calumenin (UniProt O43852).
T1 sequence: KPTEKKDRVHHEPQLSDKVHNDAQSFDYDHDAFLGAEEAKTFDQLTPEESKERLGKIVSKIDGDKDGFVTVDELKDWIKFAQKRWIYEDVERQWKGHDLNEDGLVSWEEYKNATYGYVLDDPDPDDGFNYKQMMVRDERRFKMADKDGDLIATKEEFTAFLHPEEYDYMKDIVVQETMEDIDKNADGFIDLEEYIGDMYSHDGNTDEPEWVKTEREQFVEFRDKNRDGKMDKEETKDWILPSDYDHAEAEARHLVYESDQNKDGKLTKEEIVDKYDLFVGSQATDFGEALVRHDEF
Put plainly: SPR; GST-calumenin immobilised; association phase with 4 mM free Ca2+; Ca2+ in the dissociation phase 3.5 mM to 0.5 mM; both purified. A general note: SPR reads the build-up and loss of mass on a sensor chip optically.

The target in assay [2] is T1, GST-calumenin. Put plainly: condition: only 0.1 mM Ca2+ in the dissociation phase; SPR; GST-calumenin immobilised; association phase with 4 mM free Ca2+; Ca2+ in the dissociation phase 0.1 mM; both purified.

These are yes or no findings as the source states them, for the method shown. Some binding calls cover weakened binding; strength is not graded here. Sequences can lack the tags named with a protein.

B1: C1 esterase inhibitor (commercial, Calbiochem) (protein, UniProt P05155 23-500)
chain: NPNATSSSSQDPESLQDRGEGKVATTVISKMLFVEPILEVSSLPTTNSTTNSATKITANTTDEPTTQPTTEPTTQPTIQPTQPTTQLPTDSPTQPTTGSFCPGPVTLCSDLESHSTEAVLGDALVDFSLKLYHAFSAMKKVETNMAFSPFSIASLLTQVLLGAGENTKTNLESILSYPKDFTCVHQALKGFTTKGVTSVSQIFHSPDLAIRDTFVNASRTLYSSSPRVLSNNSDANLELINTWVAKNTNNKISRLLDSLPSDTRLVLLNAIYLSAKWKTTFDPKKTRMEPFHFKNSVIKVPMMNSKKYPVAHFIDQTLKAKVGQLQLSHNLSLVILVPQNLKHRLEDMEQALSPSVFKAIMEKLEMSKFQPTLLTLPRIKVTTSQDMLSIMEKLEFFDFSYDLNLCGLTEDPDLQVSAMQHQTVLELTETGVEAAAASAISVARTLLVFEVQQPFLFVLWDQQHKFPVFMGRVYDPRA
As to B1, the binding entry with GST-calumenin [1] is given as “binds”; in the assay with GST-calumenin [2] it was “no binding”.
